Results from PMC4053984.

By UniProt entry, the sequences of proteins in these tests, tags left out. Where a name states a change or a piece, a line headed by the entry shows the natural chain unless it says otherwise.
UniProt Q96EQ9: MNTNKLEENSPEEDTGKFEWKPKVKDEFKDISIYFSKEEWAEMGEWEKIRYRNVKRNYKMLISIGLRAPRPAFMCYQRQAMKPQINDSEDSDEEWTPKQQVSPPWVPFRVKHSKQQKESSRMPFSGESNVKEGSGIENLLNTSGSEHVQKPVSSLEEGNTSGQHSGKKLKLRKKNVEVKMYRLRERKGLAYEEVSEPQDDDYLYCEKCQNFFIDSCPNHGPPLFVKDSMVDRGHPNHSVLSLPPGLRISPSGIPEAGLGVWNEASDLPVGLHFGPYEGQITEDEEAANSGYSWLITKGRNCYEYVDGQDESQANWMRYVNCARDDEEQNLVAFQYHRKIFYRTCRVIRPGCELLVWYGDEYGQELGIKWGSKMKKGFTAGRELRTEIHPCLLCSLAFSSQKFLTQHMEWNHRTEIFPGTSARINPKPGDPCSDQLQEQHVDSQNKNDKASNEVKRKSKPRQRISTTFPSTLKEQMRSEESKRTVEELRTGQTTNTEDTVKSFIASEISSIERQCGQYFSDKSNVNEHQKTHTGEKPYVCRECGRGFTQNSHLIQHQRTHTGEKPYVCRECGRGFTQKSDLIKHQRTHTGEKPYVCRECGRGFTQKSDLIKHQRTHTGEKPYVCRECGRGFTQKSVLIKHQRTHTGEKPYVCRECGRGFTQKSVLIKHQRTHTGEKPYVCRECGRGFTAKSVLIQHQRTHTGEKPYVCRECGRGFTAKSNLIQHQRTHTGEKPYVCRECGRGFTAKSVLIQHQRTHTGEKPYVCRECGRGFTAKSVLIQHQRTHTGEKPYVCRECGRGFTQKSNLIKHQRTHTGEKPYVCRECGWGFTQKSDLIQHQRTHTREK

Assays:
[1] = biological target: PRDM9Dom2 (Mus musculus (C57BL/6J)) (UniProt Q96EQ9); test: EMSA competition; settings: 10 mM Tris pH 7.5, 50 mM KCl, 1 mM DTT, 50 ng/ul poly(dI/dC), 0.05% NP-40, 0.5 pmol labelled dsDNA (printed pmol/l), 3 ul E. coli extract in 20 ul, 40 min; protein in a lysate after overexpression; residues 1-843; protein details: N-terminal His tag (pBAD/HisB)
[2] = tested on: PRDM9Cst (Mus musculus (CAST/EiJ)); test: EMSA competition; settings: 10 mM Tris pH 7.5, 50 mM KCl, 1 mM DTT, 50 ng/ul poly(dI/dC), 0.05% NP-40, 0.5 pmol labelled dsDNA (printed pmol/l), 3 ul E. coli extract in 20 ul, 40 min; protein in a lysate after overexpression; protein details: N-terminal His tag (pBAD/HisB)
[3] = tested on: PRDM9Cst (Mus musculus (CAST/EiJ)); test: EMSA; settings: 10 mM Tris pH 7.5, 50 mM KCl, 1 mM DTT, 50 ng/ul poly(dI/dC), 0.05% NP-40, 0.5 pmol labelled dsDNA (printed pmol/l), 3 ul E. coli extract in 20 ul, 40 min, protein in a lysate after overexpression, protein details: N-terminal His tag (pBAD/HisB)

Sequence | binding result [1] | binding result [2] | further results
GAGAACTTACAAAGGTAGGACGTAAATGGAGTGT (double strand) [Pbx1 34 bp minimal] | binds | – | –
CCAGGGAATAGAACTTTGACCATTACCC (double strand) [Psmb9 28 bp (28r)] | – | no binding | –
ATGGAGAACTTACAAAGGTAGGACGTAAATGGAGTGTTTA (double strand) [Pbx1 40 bp] | binds | – | –
AAAATTCTAGTAGTAGTGAAATACTTTGCAAATATCAAGGCTCTAATACAAATCCTACTGGCGACATACTTGGAAGAGTA (double strand) [Esrrg-1 80 bp] | – | – | binding result [3]: binds
GTGTGCAGACTTGGACCCTGCCCTTTCTTT (double strand) [Hlx1 30 bp] | – | no binding | –
CCAGGGAATAGAACTTTGACCATTA (double strand) [Psmb9 25 bp (25r)] | – | no binding | –
ATACTTTGCAAATATCAAGGCTCTAATACAAAT (double strand) [Esrrg-1 33 bp minimal] | – | binds | –
ATAGTGTGCAGACTTGGACCCTGCCCTTTCTTT (double strand) [Hlx1 33 bp] | – | binds | –
GTGGGAGGAGATGGTGGGTGAATAGTGTGCAGACTTGGACCCTGCCCTTTCTTTACGCATTCCACTAACCATGGG (double strand) [Hlx1 75 bp] | – | – | binding result ([3]; label: 3' biotin): binds
ATACTTTGCAAATATCAAGGCTCTAATACA (double strand) [Esrrg-1 30 bp] | – | no binding | –
GAGAACTTACAAAGGTAGGACGTAAATGG (double strand) [Pbx1 29 bp] | no binding | – | –
GGATCCAGGGAATAGAACTTTGACCATTACCC (double strand) [Psmb9 32 bp (32l)] | – | binds | –
GAAATACTTTGCAAATATCAAGGCTCTAATACAAAT (double strand) [Esrrg-1 36 bp] | – | binds | –
TGAATAGTGTGCAGACTTGGACCCTGCCCTTTCTTTACG (double strand) [Hlx1 39 bp] | – | binds | –
TAGTGTGCAGACTTGGACCCTGCCCTTTCTTT (double strand) [Hlx1 32 bp] | – | binds | –
GAGAACTTACAAAGGTAGGACGTAAATGGAG (double strand) [Pbx1 31 bp] | no binding | – | –
GAGAACTTACAAAGGTAGGACGTAAATGGAGTG (double strand) [Pbx1 33 bp] | no binding | – | –
ATCCAGGGAATAGAACTTTGACCATTACCC (double strand) [Psmb9 30 bp (30l) minimal] | – | binds | –
GAGAACTTACAAAGGTAGGACGTAAATGGAGTGTTTA (double strand) [Pbx1 37 bp] | binds | – | –
AGTGTGCAGACTTGGACCCTGCCCTTTCTTT (double strand) [Hlx1 31 bp minimal] | – | binds | –

Where cells or extracts were used, other partners may take part. For some assays here: No signal at the amounts used counts as a negative. At least one verdict rests on a figure or table, not on a statement of the authors. For at least one entry, the source does not settle the construct or the ends of the probe.
